In the assay the test system is L1210 leukemia ip in BDF1 mice, survival T/C. Nature of the assay: NCI In Vivo Anticancer Drug Screen. Data for tumor model L1210 Leukemia (intraperitoneal) in B6D2F1 (BDF1) mice. The settings on record: T/C endpoint: mean survival time, higher T/C = longer survival.
Where [1] appears, read: dose: 60.0 mg/kg/injection, schedule: Q01DX001 (ip), vehicle: saline.
Setting [2] is: dose: 400.0 mg/kg/injection, schedule: Q01DX001 (ip), vehicle: carboxymethylcellulose (CMC).
Setting [3] is: dose: 300.0 mg/kg/injection, schedule: Q01DX001 (ip), vehicle: saline.
[4] abbreviates: dose: 100.0 mg/kg/injection, schedule: Q01DX009 (ip), vehicle: Klucel (hydroxypropylcellulose) (HPC).
Where [5] appears, read: dose: 200.0 mg/kg/injection, schedule: Q01DX009 (ip), vehicle: Klucel (hydroxypropylcellulose) (HPC).
Where [6] appears, read: dose: 400.0 mg/kg/injection, schedule: Q01DX009 (ip), vehicle: Klucel (hydroxypropylcellulose) (HPC).
[7] abbreviates: dose: 400.0 mg/kg/injection, schedule: Q04DX003 (ip), vehicle: saline.

The structures appear in SMILES notation. The list is a part of this screen's results and no random one: it is rich in T/C values a quarter to a half above the control, in often repeated tests (any T/C) and in doses without a T/C. Other doses and runs of a compound stand elsewhere. T/C gives the treated animals as a percentage of the vehicle group. Some doses have a count of surviving animals in place of a T/C: the source holds a T/C of zero for them, seemingly a mark for toxic or unscored doses. Some survivor counts are full or nearly so, which does not show that the dose was tolerated: survival well below the control is almost never listed, so the zero probably covers shortened survival too. Counts of survivors are from the toxicity check (mostly the fifth day) where no day follows; animals may have died later. Schedules are NCI's codes, taken here to give the interval after Q, in days (D) or hours (H), and the number of doses after X. Some schedule codes hold Z or #, which are not explained here. Some molecules as drawn cover several salts, stereoisomers or complexes of the source; a dose is that of the sample tested. Some doses were run more than once; the results are listed from low to high. Where survival is the endpoint, this PubChem deposit counts one and a half times the control or more as active, and values a quarter to a half above the control carry no call in these data; other NCI protocols may use other cut-offs. Some T/C values carry the count of animals alive at the toxicity check (mostly the fifth day); where none is given, no animal had died by that day.

For `COC(=O)C(N)Cc1ccc(OC)c(N(CCCl)CCCl)c1` (stereo not given), the T/C (dose: 0.7 mg/kg/injection, schedule: Q01DX009 (ip), vehicle: saline) was 148 % of control and the T/C (dose: 10.0 mg/kg/injection, schedule: Q01DX001 (ip), vehicle: saline) was 129 % of control. In addition, the survivor count is 6 of 6 (dose: 6.6 mg/kg/injection, schedule: Q01DX009 (ip), vehicle: saline); 3 of 6 (dose: 10.0 mg/kg/injection, schedule: Q01DX009 (ip), vehicle: saline); 2 of 6 (dose: 12.5 mg/kg/injection, schedule: Q01DX001 (ip), vehicle: carboxymethylcellulose (CMC)); 4 of 6 (dose: 15.0 mg/kg/injection, schedule: Q01DX001 (ip), vehicle: saline); 5 of 6 (dose: 20.0 mg/kg/injection, schedule: Q01DX001 (ip), vehicle: saline); 0 of 6 (dose: 25.0 mg/kg/injection, schedule: Q01DX001 (ip), vehicle: carboxymethylcellulose (CMC)). In addition, the survivor count runs as follows: (dose: 30.0 mg/kg/injection, schedule: Q01DX001 (ip), vehicle: saline) 5 of 6; (dose: 40.0 mg/kg/injection, schedule: Q01DX001 (ip), vehicle: saline) 1 of 6; (dose: 50.0 mg/kg/injection, schedule: Q01DX001 (ip), vehicle: carboxymethylcellulose (CMC)) 0 of 6; under setting [1], 0 of 6; (dose: 75.0 mg/kg/injection, schedule: Q01DX001 (sc), vehicle: saline) 0 of 6; (dose: 80.0 mg/kg/injection, schedule: Q01DX001 (ip), vehicle: saline) 0 of 6. Besides, the survivor count reads like this: (dose: 100.0 mg/kg/injection, schedule: Q01DX001 (ip), vehicle: carboxymethylcellulose (CMC)) 0 of 6; (dose: 150.0 mg/kg/injection, schedule: Q01DX001 (sc), vehicle: saline) 0 of 6; (dose: 160.0 mg/kg/injection, schedule: Q01DX001 (ip), vehicle: saline) 0 of 6; (dose: 200.0 mg/kg/injection, schedule: Q01DX001 (ip), vehicle: carboxymethylcellulose (CMC)) 0 of 6; (dose: 300.0 mg/kg/injection, schedule: Q01DX001 (sc), vehicle: saline) 0 of 6; under setting [2], 0 of 6.
For the molecule `CC(=O)CC(C)=NCC(C)N=C(C)CC(C)=O` (stereo not given), the survivor count (dose: 400.0 mg/kg/injection, schedule: Q01DX009 (ip), vehicle: saline with Tween-80) is listed as 6 of 6.
For `CC12CCC(CC(=O)O1)C2(C)C` (stereo not given), the survivor count runs as follows: (dose: 150.0 mg/kg/injection, schedule: Q01DX001 (ip), vehicle: saline) 1 of 6; under setting [3], 0 of 6.
For `CN1C2CC(=O)CC1C(O)C2` (stereo not given), the survivor count by setting is: (dose: 50.0 mg/kg/injection, schedule: Q01DX001 (ip), vehicle: saline) 4 of 4; (dose: 200.0 mg/kg/injection, schedule: Q01DX001 (ip), vehicle: saline) 4 of 4.
On to `S=C(NCc1ccc(Cl)c(Cl)c1)NCc1ccc(Cl)c(Cl)c1`, for which the survivor count under setting [4] is 0 of 3 and 0 of 6; the survivor count under setting [5] was 0 of 6; the survivor count under setting [6] is given as 0 of 6.
In the case of `COc1ccccc1N=Nc1c(O)n(-c2ccccc2C)c(=S)n(-c2ccccc2)c1=O`, the survivor count (dose: 400.0 mg/kg/injection, schedule: Q01DX001 (ip), vehicle: Klucel (hydroxypropylcellulose) (HPC)) was 2 of 6.
As to `CC(O)(Cc1ccccc1)c1ccccc1` (stereo not given), the T/C (dose: 100.0 mg/kg/injection, schedule: Q04DX003 (ip), vehicle: saline with Tween-80) was 125 % of control.
As for `CCCCN(C)N=Nc1ccccc1C(N)=O`, the T/C (dose: 89.0 mg/kg/injection, schedule: Q01DX009 (ip), vehicle: other) is 134 % of control; the T/C (dose: 133.0 mg/kg/injection, schedule: Q01DX009 (ip), vehicle: Klucel (hydroxypropylcellulose) (HPC)) is 128 % of control [5 of 6 alive]; the T/C (dose: 133.0 mg/kg/injection, schedule: Q01DX009 (ip), vehicle: other) is 126 % of control; the T/C (dose: 200.0 mg/kg/injection, schedule: Q01DX009 (ip), vehicle: other) is 137 % of control; the T/C (dose: 600.0 mg/kg/injection, schedule: Q01DX001 (ip), vehicle: other) was 136 % of control. Besides, the survivor count under setting [5] is 2 of 6.
Turning to `FC(Cl)C(F)(F)Br` (stereo not given), the survivor count by setting is: (dose: 600.0 mg/kg/injection, schedule: Q01DX005 (ip), vehicle: saline) 6 of 6; (dose: 800.0 mg/kg/injection, schedule: Q01DX001 (ip), vehicle: acetone) 3 of 6; (dose: 1200.0 mg/kg/injection, schedule: Q01DX001 (ip), vehicle: acetone) 1 of 6; (dose: 1600.0 mg/kg/injection, schedule: Q01DX001 (ip), vehicle: acetone) 1 of 6.
As to `CC[n+]1ccccc1-c1ccc(NC(=O)c2ccc(C(=O)Nc3ccc(-c4ccccn4)cc3)cc2)cc1`, the T/C was 136 % of control (dose: 1.1 mg/kg/injection, schedule: Q01DX Z (ip), vehicle: saline); 133 % of control (dose: 1.7 mg/kg/injection, schedule: Q01DX Z (ip), vehicle: saline); 136 % of control (dose: 6.6 mg/kg/injection, schedule: Q01DX001 (ip), vehicle: saline); 131 and 139 % of control (dose: 10.0 mg/kg/injection, schedule: Q01DX Z (ip), vehicle: saline). Also, the survivor count reads like this: (dose: 55.0 mg/kg/injection, schedule: Q01DX Z (ip), vehicle: saline) 6 of 6; under setting [1], 4 of 4; (dose: 80.0 mg/kg/injection, schedule: Q01DX Z (ip), vehicle: saline) 6 of 6; (dose: 90.0 mg/kg/injection, schedule: Q01DX001 (ip), vehicle: saline) 4 of 4; (dose: 135.0 mg/kg/injection, schedule: Q01DX001 (ip), vehicle: saline) 4 of 4.
Take `CN(C)c1ccc(/C=N\NC(=O)c2ccco2)cc1`: the survivor count (dose: 100.0 mg/kg/injection, schedule: Q01DX001 (ip), vehicle: other) is 4 of 4.
Consider `Cc1cc(N(CCOS(C)(=O)=O)CCOS(C)(=O)=O)ccc1C=Nc1ccc(-c2csc(-c3ccc(Br)cc3)n2)cc1`, for which the T/C (dose: 66.0 mg/kg/injection, schedule: Q01DX009 (ip), vehicle: saline) was 145 % of control; the T/C (dose: 66.0 mg/kg/injection, schedule: Q04DX003 (ip), vehicle: Klucel (hydroxypropylcellulose) (HPC)) was 129 % of control; the T/C (dose: 100.0 mg/kg/injection, schedule: Q04DX003 (ip), vehicle: Klucel (hydroxypropylcellulose) (HPC)) was 136 % of control; the T/C (dose: 150.0 mg/kg/injection, schedule: Q04DX003 (ip), vehicle: Klucel (hydroxypropylcellulose) (HPC)) was 134 % of control. Moreover, where the note is “dose: 400.0 mg/kg/injection, schedule: Q04DX003 (ip), vehicle: Klucel (hydroxypropylcellulose) (HPC)”, the survivor count is recorded as 4 of 6.
On to `C[n+]1c(/C=C\C=C\N2CCCCC2)sc2ccccc21`, for which the survivor count (dose: 5.0 mg/kg/injection, schedule: Q04DX002 (ip), vehicle: saline with Tween-80) is 1 of 3 and the survivor count (dose: 10.0 mg/kg/injection, schedule: Q04DX002 (ip), vehicle: saline with Tween-80) is on record as 0 of 3.
As to `CC(=O)OCC1(C[N+](C)(C)C)CCC1`, the survivor count under setting [7] is 3 of 6.
In the case of `O=C(O)c1cc2cc(Cl)ccc2oc1=O`, the survivor count under setting [2] is 2 of 4.
`O=S(=O)(Cl)c1cc(Cl)ccc1Cl`: the survivor count is, setting by setting: under setting [4], 2 of 6; under setting [5], 2 of 6; under setting [6], 0 of 6.
With `NCCCOc1ccc([N+](=O)[O-])cc1Cl`, the survivor count is, setting by setting: under setting [3], 1 of 6; under setting [7], 0 of 6.
With `CN(C)/N=N/c1nc(Cc2ccccc2)[nH]c1C(N)=O`, the T/C under setting [6] is 141 % of control.

For the origin of these results see PubChem BioAssay AID248 (DTP/NCI, 2004).
